{"sequences": {"note": "Amino acid sequences for entries named in this document (tags omitted). Residues count along the entry.", "UniProt Q9H3R0, 1-420 limits assumed": "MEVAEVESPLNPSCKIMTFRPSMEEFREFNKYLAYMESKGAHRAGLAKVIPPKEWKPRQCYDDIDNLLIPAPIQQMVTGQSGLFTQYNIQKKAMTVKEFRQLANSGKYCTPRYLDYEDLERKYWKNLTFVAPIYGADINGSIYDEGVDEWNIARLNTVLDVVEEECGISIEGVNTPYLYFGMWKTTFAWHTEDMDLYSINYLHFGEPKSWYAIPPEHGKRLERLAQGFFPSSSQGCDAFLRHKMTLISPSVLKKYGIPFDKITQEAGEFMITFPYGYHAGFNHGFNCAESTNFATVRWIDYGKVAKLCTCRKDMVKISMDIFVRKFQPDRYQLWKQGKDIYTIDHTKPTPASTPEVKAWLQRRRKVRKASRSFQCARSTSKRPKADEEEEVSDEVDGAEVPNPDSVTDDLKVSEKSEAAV"}, "source": "PubChem BioAssay AID2099", "about": "(Broad Institute, 2009)", "note": "The campaign covered roughly 330,000 compounds. About 230 (0.07%) were called active. The shares of active, inactive and inconclusive entries below differ from those in the screen.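 How the source made its calls: active means more than half of a compound's replicate wells show inhibition beyond 50%, single wells judged on their own value; inconclusive means some, but no more than half, of replicates pass 50% inhibition; inactive means no replicate passes 50% inhibition.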", "data": [{"biological_target": "Lysine-specific demethylase 4C (Homo sapiens) (UniProt Q9H3R0)", "assay": "inhibitors of GASC-1 histone demethylase, primary screen, biochemical, fluorescence, DELFIA europium (AID 2099);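 further: signal counts dimethyl H3K9 product captured on neutravidin plate; 0% = median of DMSO wells and 100% = 0.3 times that DMSO median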", "conditions": "GST-JMJD2C(1-420) H3K9me3 demethylation, at 2.35 µM, active compounds read high", "values": [{"smiles": "CC(C)OCCCNS(=O)(=O)c1ccc2c(c1)oc(=O)n2C", "inhibition": "inactive: 4.74%"}, {"smiles": "CCCc1cc(=O)oc2c(C)c(OCC(=O)NCCN3CCOCC3)ccc12", "inhibition": "inconclusive: -109%"}, {"smiles": "CCOc1ccc(CCNC(=O)C2CC=CCC2C(=O)OC(C)C)cc1OCC", "note": "(stereo not drawn)", "inhibition": "inactive: -1.3%"}, {"smiles": "C=C(C)CSc1nnc(CCNC(=O)OC(C)(C)C)o1", "inhibition": "inconclusive: -173%"}, {"smiles": "CCCS(=O)(=O)N1CCN=C1SCc1cccc2ccccc12", "inhibition": "inactive: 1.75%"}, {"smiles": "Cc1cc(=O)oc2cc(OCC(=O)OCc3nnc(-c4ccccc4)o3)ccc12", "inhibition": "inconclusive: -95.9%"}, {"smiles": "CCC(C)c1ccc(NC(=S)N2CCN(C(=O)C3CCCO3)CC2)cc1", "note": "(stereo not drawn)", "inhibition": "inactive: 4.51%"}, {"smiles": "COc1ccc(S(=O)(=O)NCc2cc(=O)n(C)c(=O)n2C)cc1F", "inhibition": "inconclusive: -92.2%"}, {"smiles": "CCN(CC)CCNc1cc(C)c(C#N)c2nc3ccccc3n12", "inhibition": "inactive: 2.29%"}, {"smiles": "COc1cc(NC(=O)c2cc(Cl)ccc2Cl)ccc1-c1cc2ccccc2oc1=O", "inhibition": "inactive: -1.86%"}, {"smiles": "O=S(=O)(CCSc1nc2ccccc2s1)c1nc2ccccc2s1", "inhibition": "inactive: -49.7%"}, {"smiles": "Cc1ccc(-c2csc(NC(=O)CN3CCOCC3)n2)cc1C", "inhibition": "inconclusive: -97.8%"}, {"smiles": "COc1ccc2c(c1)c1ncn(CCCN3CCOCC3)c(=O)c1n2C", "inhibition": "inconclusive: -128%"}, {"smiles": "Cn1c(=O)[nH]c(=O)c2c1nc1n2CC(COc2ccc3ccccc3c2)O1", "note": "(stereo not drawn)", "inhibition": "inactive: 1.59%"}, {"smiles": "C=CCc1cccc(C=Nc2cc(Br)ccc2O)c1O", "inhibition": "inactive: 11.6%"}, {"smiles": "O=C(N=C1SC2CS(=O)(=O)CC2N1CCc1ccccc1)C1CC1", "note": "(stereo not drawn)", "inhibition": "inconclusive: -155%"}, {"smiles": "Fc1cccc(Cl)c1Cn1nnc2c(N3CCC4(CC3)OCCO4)ncnc21", "inhibition": "inconclusive: -175%"}, {"smiles": "CS(=O)(=O)N(CC(=O)NCCSc1ccc(Cl)cc1)c1ccc2c(c1)OCO2", "inhibition": "inactive: -0.139%"}, {"smiles": "CC(C)n1c(SCC(=O)NC2CC2)nnc1C1CC1", "inhibition": "inconclusive: -52.1%"}, {"smiles": "Cc1ccc(C)c(S(=O)(=O)N2CCN(C(=O)c3ccnn3C)CC2)c1", "inhibition": "inconclusive: -58.8%"}, {"smiles": "O=C(CCSc1nnc2scc(-c3ccccc3)n12)Nc1nc(-c2ccccc2)ns1", "inhibition": "inconclusive: -147%"}, {"smiles": "O=C(Nc1cccc2ncccc12)c1cccc(F)c1", "inhibition": "inconclusive: -88.6%"}, {"smiles": "O=C(Nc1ccc2c(c1)OCO2)c1cnc2n(c1=O)CCS2", "inhibition": "inactive: -5.65%"}, {"smiles": "CCC(=O)N(CCC1(C(C)C)CCOC(C)(C)C1)C(C)c1cccs1", "note": "(stereo not drawn)", "inhibition": "inconclusive: -61.2%"}, {"smiles": "CCCCNC(=O)C(=O)NCC1CCCN1S(=O)(=O)c1cccs1", "note": "(stereo not drawn)", "inhibition": "inconclusive: -172%"}, {"smiles": "COc1ccc(/C=C/C(=O)Oc2ccc(/C=N\\NC(=O)c3ccc(F)cc3)cc2)cc1", "inhibition": "inactive: -7.34%"}, {"smiles": "COc1ccc(C(C)=O)cc1COc1ccc(Cl)c(C)c1", "inhibition": "inconclusive: -36.6%"}, {"smiles": "Cc1c(Cl)cccc1NC(=O)CCNC(=O)N1CC(=O)Nc2ccccc21", "inhibition": "inactive: -6.15%"}, {"smiles": "O=C(N/N=C/c1cc([N+](=O)[O-])ccc1O)c1ccc(COc2ccc3c(c2)CCC3)o1", "inhibition": "inactive: 1.86%"}, {"smiles": "O=C(c1cccn2c(=O)c3ccc(Cl)cc3nc12)N1CCN(Cc2ccc3c(c2)OCO3)CC1", "inhibition": "inconclusive: -130%"}, {"smiles": "COc1ccc(C2C(C(C)=O)=C(O)C(=O)N2c2nc3ccccc3s2)cc1OC", "note": "(stereo not drawn)", "inhibition": "inconclusive: -69.1%"}, {"smiles": "O=C1c2ccccc2C(=O)c2c(Nc3ccc(CCO)cc3)ccc(O)c21", "inhibition": "inactive: -1.39%"}, {"smiles": "Cc1occc1C(=O)Nc1c(F)c(F)c(F)c(F)c1F", "inhibition": "inconclusive: -150%"}, {"smiles": "CCN(C(=O)c1c(OC)cccc1OC)c1nnc(-c2cccnc2)s1", "inhibition": "inconclusive: -27.1%"}, {"smiles": "Cc1ccc(S(=O)(=O)c2cc3c(=O)n4ccccc4nc3n(Cc3ccco3)c2=N)cc1C", "inhibition": "inactive: 3.57%"}, {"smiles": "O=C(Nc1ccc(Cl)c(Cl)c1)C1CCN(C(=O)c2ccco2)CC1", "inhibition": "inconclusive: -82.2%"}, {"smiles": "CCOc1cc(CNCC(O)c2ccccc2)cc(Cl)c1OC", "note": "(stereo not drawn)", "inhibition": "inactive: 2.13%"}, {"smiles": "O=[N+]([O-])c1cc(S(=O)(=O)N2CCCC2)ccc1NCCCN1CCOCC1", "inhibition": "inconclusive: -21.9%"}, {"smiles": "CCN1/C(=C/c2ccc3ccccc3[n+]2CCCS(=O)(=O)[O-])C=Cc2cc(C)ccc21", "inhibition": "inactive: 1.88%"}, {"smiles": "CCc1c(C)nc2cc(-c3ccccc3)[nH]n2c1=O", "inhibition": "inactive: 25.7%"}, {"smiles": "CCN(CC)CCNC(=O)c1ccc(N)cc1", "inhibition": "inconclusive: -28.1%"}, {"smiles": "O=C(CN1C(=O)/C(=C/c2ccccc2)SC1=S)NNC(=O)c1ccccc1O", "inhibition": "inconclusive: -73.5%"}, {"smiles": "COc1ccc2c(c1)OC[C@H]1[C@H]2N2C(=O)CNC(=O)[C@@]2(C)[C@H]1c1ccccc1", "inhibition": "active: 59.2%"}, {"smiles": "CC1CCN(C(=O)c2ccc(S(=O)(=O)N3CCOCC3)cc2)CC1", "inhibition": "inactive: -30.7%"}, {"smiles": "O=C1NCCN/C1=C\\C(=O)c1ccc(Cl)cc1", "inhibition": "inconclusive: -58.1%"}, {"smiles": "CCOC(=O)C1C2C=CC3(CN(Cc4ccccc4)C(=O)C13)O2", "note": "(stereo not drawn)", "inhibition": "inconclusive: -106%"}, {"smiles": "O=C(Cc1ccccc1)N/N=C/c1cc(Br)cc(Cl)c1O", "inhibition": "inconclusive: -55.9%"}, {"smiles": "Cc1ccccc1NS(=O)(=O)c1cccc2nonc12", "inhibition": "inactive: 8.36%"}, {"smiles": "COc1ccc(CNc2nc3ccccc3n2C)c(OC)c1", "inhibition": "inactive: 6.08%"}, {"smiles": "Cc1ccccc1CC(=O)N1CCCC1", "inhibition": "inactive: 28.2%"}, {"smiles": "CC1C(=O)N2CCCc3cc(S(=O)(=O)N4CCCCC4)cc1c32", "note": "(stereo not drawn)", "inhibition": "inconclusive: -124%"}, {"smiles": "c1ccc(-c2nc(-c3ccco3)cs2)nc1", "inhibition": "active: 55.8%"}, {"smiles": "Cc1ccc2c(c1)nnn2C1CCN(S(=O)(=O)c2ccc(C(=O)N3CC(C)CC(C)C3)cc2)CC1", "note": "(stereo not drawn)", "inhibition": "inconclusive: -268%"}, {"smiles": "O=C(NCc1ccccc1Cl)C1CCN(C(=O)c2ccco2)CC1", "inhibition": "active: 57.9%"}, {"smiles": "O=C(CN1C(=O)CCSc2ccc(S(=O)(=O)N3CCCC3)cc21)Nc1ccccc1Cl", "inhibition": "inconclusive: -50.5%"}, {"smiles": "Cc1ccc(-c2[nH]ncc2CNCCc2cnn(-c3ccccc3)c2)cc1C", "inhibition": "inactive: 1.37%"}, {"smiles": "c1ccc(OCCCn2nnc(-c3ccc(N4CCOCC4)cc3)n2)cc1", "inhibition": "inconclusive: -72.7%"}, {"smiles": "COCCCn1cnc2c(c1=O)c1nc3ccccc3nc1n2CCc1ccccc1", "inhibition": "inconclusive: -69.6%"}, {"smiles": "Cc1c(Cl)c(C(=O)N2CCCCCC2)nn1C", "inhibition": "inconclusive: -63.1%"}, {"smiles": "CCOC(=O)c1ccccc1NC(=O)C1CC(=O)N(c2ccccc2)C1", "note": "(stereo not drawn)", "inhibition": "inactive: -8.39%"}, {"smiles": "Nc1nn2c(-c3ccccc3)cc(=O)[nH]c2c1N=Nc1ccc(O)cc1", "inhibition": "active: 51.2%"}, {"smiles": "NC(=O)c1cnn(Cc2ccc(Cl)cc2)c1N", "inhibition": "inconclusive: -92.9%"}, {"smiles": "CC1=C(C)/C(=N\\OS(=O)(=O)c2ccccc2)C=CC1=O", "inhibition": "inactive: 5.32%"}, {"smiles": "COc1ccc(C(CNS(=O)(=O)c2ccccc2)N2CCN(C)CC2)cc1", "note": "(stereo not drawn)", "inhibition": "inconclusive: -58.6%"}, {"smiles": "NS(=O)(=O)c1cccc(NC(=O)CN2CCN(Cc3ccc4c(c3)OCO4)CC2)c1", "inhibition": "inactive: -5.37%"}, {"smiles": "CCOc1ccccc1NC(=O)CNC(=O)N1CC(=O)Nc2ccccc21", "inhibition": "inconclusive: -51.7%"}, {"smiles": "COc1ccc(-c2noc(-c3ccc(Br)o3)n2)cc1", "inhibition": "inactive: 0.653%"}, {"smiles": "COc1ccccc1-n1nnnc1SC(C)C(=O)NC1CCCC1", "note": "(stereo not drawn)", "inhibition": "inconclusive: -122%"}, {"smiles": "O=C(O)C1=C[C@H](c2coc3ccccc3c2=O)C[C@H](OCc2ccc(CO)cc2)O1", "inhibition": "inconclusive: -180%"}, {"smiles": "CC1(C)CC[C@]2(C(=O)O)[C@H](O)C[C@]3(C)C(=CCC4[C@@]5(C)C[C@H](O)[C@H](O)[C@@](C)(CO)C5CC[C@]43C)[C@@H]2C1", "note": "(stereo partly drawn)", "inhibition": "inconclusive: -210%"}, {"smiles": "CC(C)OC(=O)Nc1ccc2c(c1)N(C(=O)CCN(C)C)c1ccccc1CC2", "inhibition": "inconclusive: -72.3%"}, {"smiles": "Cc1ccccc1NC(=O)c1sc2nc(N3CCOCC3)c3c(c2c1N)CCCC3", "inhibition": "inconclusive: -104%"}, {"smiles": "Cc1ccc(S(=O)(=O)CCC(=O)c2ccc(O)cc2O)cc1", "inhibition": "inactive: -5.29%"}, {"smiles": "C/C(=N\\NC(N)=O)C1(C)CCCCC1", "inhibition": "inconclusive: -71.3%"}, {"smiles": "N#CC1CCCc2c1[nH]c1ccc([N+](=O)[O-])cc21", "note": "(stereo not drawn)", "inhibition": "inactive: 18.5%"}, {"smiles": "CC(=O)Oc1ccc(-c2cccc(C(=O)OCC(=O)Nc3ccccc3Oc3ccccc3)c2)cc1", "inhibition": "inconclusive: -57.9%"}, {"smiles": "CCN(CC)S(=O)(=O)c1cccc(NC(=O)Nc2cccc(C(F)(F)F)c2)c1", "inhibition": "inactive: 6.69%"}, {"smiles": "COC(=O)c1ccccc1S(=O)(=O)N1CCC(C(=O)OCc2cccc(OC)c2OC)CC1", "inhibition": "inconclusive: -116%"}, {"smiles": "CN1CCN(C(c2ccc(Br)cc2)c2cc(Cl)c3cccnc3c2O)CC1", "note": "(stereo not drawn)", "inhibition": "inactive: -8.45%"}, {"smiles": "CCn1c(CNC(=O)c2ccccc2F)nnc1SCC(=O)NC1CCCCC1", "inhibition": "inactive: 20.6%"}, {"smiles": "COc1ccc(OC)c(C2=NO[C@@](CC(=O)O)(C(=O)Nc3ccc4c(c3)OCCO4)C2)c1", "inhibition": "inconclusive: -57%"}, {"smiles": "Cc1ccc(C(=O)CCC(=O)OCC(=O)N(CC(C)C)c2c(N)n(Cc3ccccc3)c(=O)[nH]c2=O)cc1", "inhibition": "inactive: 7.5%"}, {"smiles": "CCn1cc(C(=O)N[C@@H](CCSC)C(=O)NCCN2CCOCC2)c(=O)c2cc3c(cc21)OCO3", "inhibition": "inconclusive: -53.5%"}, {"smiles": "COCCNC(=O)/C(C#N)=C/c1c(N2CCCCCC2)nc2ccccn2c1=O", "inhibition": "inconclusive: -96.3%"}, {"smiles": "CC1(NC(=O)Cc2ccc(S(=O)(=O)N3CCOCC3)s2)CCS(=O)(=O)C1", "note": "(stereo not drawn)", "inhibition": "inconclusive: -80.2%"}, {"smiles": "COc1ccc(NC(=O)c2sc3nc(N4CCOCC4)c4c(c3c2N)CC(C)(C)OC4)c(OC)c1", "inhibition": "inactive: 19.1%"}, {"smiles": "Cc1cccc(-c2noc(CCC(=O)NC3CCCC3)n2)c1", "inhibition": "active: 54.2%"}, {"smiles": "COc1ccccc1C(=O)NC(CCSC)C(=O)NCCCSc1ccccc1", "note": "(stereo not drawn)", "inhibition": "inconclusive: -198%"}]}]}
